Source: patent US20260071182A1 (GAIA BIOMEDICINE, published 2026)
No constants are given. Whether binding was seen depends on the method and setting. Some results given as binding are weak or reduced against the parent protein; the word gives no strength. Tags and fused reporters may be left off the sequences shown.

T1: Biotinylated Human 2B4/CD244/SLAMF4 Protein, Fc, Avitag (2B4-H82F0) (human) (UniProt Q9BZW8)
T1 sequence (biotinylated (Avitag), looked up): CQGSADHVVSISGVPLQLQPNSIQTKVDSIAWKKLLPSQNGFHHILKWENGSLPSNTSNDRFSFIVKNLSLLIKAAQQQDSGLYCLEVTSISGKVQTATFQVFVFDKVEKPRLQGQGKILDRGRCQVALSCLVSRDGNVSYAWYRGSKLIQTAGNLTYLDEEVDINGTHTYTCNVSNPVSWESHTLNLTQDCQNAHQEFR


Columns and labels:
[1] = molecular target: T1, Biotinylated Human 2B4/CD244/SLAMF4 Protein, Fc, Avitag (2B4-H82F0) (human); assay: BLI (Octet RED96)
[2] = molecular target: T1, Biotinylated Human 2B4/CD244/SLAMF4 Protein, Fc, Avitag (2B4-H82F0) (human); assay: BLI (Octet RED96), target on sensor, monobody 40 nM
[3] = molecular target: T1, Biotinylated Human 2B4/CD244/SLAMF4 Protein, Fc, Avitag (2B4-H82F0) (human); assay: BLI (bio-layer interferometry) with expressed and purified clones

| binding [1] | binding [2] | binding [3] | Binder |
| --- | --- | --- | --- |
| binds | binds | binds | Mb-2B4-CD-3 (designed binder, Monobody on human fibronectin type III domain scaffold, CD-FG library; also called 2B4 CD-FG No. 3; not shown: Sortase A recognition site, His tag and any linker (X8n8) at the C terminus; MPNR in the library) LEVVEASPTSIQISWDAPAVTVRYYEILYGETGTPPWIHKGWVQYFTVPGSKSTATISGLKPGVDYTITVYAVTVTPYGRKWVGMNGWPISINYRTEIDKPSQ |
| binds | binds | binds | Mb-2B4-CD-1 (designed binder, Monobody on human fibronectin type III domain scaffold, CD-FG library; also called 2B4 CD-FG No. 1; not shown: Sortase A recognition site, His tag and any linker (X8n8) at the C terminus; MPNR in the library) LEVVEASPTSIQISWDAPAVTVRYYGIYYGETGTSPWVYNGYVQEFTVPGSKSTATISGLKPGVDYTITVYAVTDQYKSWNLEEFHPISINYRTEIDKPSQ |
